According to patent US6664231B1 (priority 1993, dated 2003):
HELM strings list residues between dots; [ac] is acetyl, [am] amide, other brackets name non-standard units. Square brackets hold non-standard residues; d marks the D form. Phe(4-NH2) = Nc1ccc(C[C@H](N)C(=O)O)cc1; 1Nal = N[C@@H](Cc1cccc2ccccc12)C(=O)O

Experiment: general procedure: Fmoc solid-phase peptide synthesis; polystyrene resin, 1% DVB, Fmoc-Rink amide linker, 0.44 mmoles/gram; DIC/HOBt and HBTU/HOBt/DIEA (double coupling)
Conditions: whole synthesis, HPLC, scale of the general procedure between 0.1 grams and 5 grams of starting resin
In the case of H-KSKVGALIQLFHKK-NH2, the “purity (crude or final not stated)” value was 99%.

Same assay, conditions: whole synthesis, scale of the general procedure between 0.1 grams and 5 grams of starting resin
With H-KSKVGWLIQLAHKK-NH2 the “crude HPLC purity” value was 63%. In the case of H-KWLIQLFHKP-NH2, the “crude HPLC purity” value was 64% and the “final HPLC purity” value was 98%. In the case of H-KSKVGWLIQLFAKK-NH2, the “crude HPLC purity” value was 59%. For H-KSKVGWLIQLFHKK-NH2, the “crude HPLC purity” value was 69% and the “final HPLC purity” value was 98%. In the case of H-KSKVGWLIDLFHKK-NH2, the “crude HPLC purity” value was 60%. With H-KSKVKVLIQLFHKK-NH2 the “crude HPLC purity” value was 52%. In the case of H-KSKVGWLIQLFFKK-NH2, the “crude HPLC purity” value was 59%. In the case of PEPTIDE1{K.K.W.L.I.Q.L.K.[am]}$$$$V2.0, the “crude HPLC purity” value was 59%. In the case of H-KSKVGWLIELFHKK-NH2, the “crude HPLC purity” value was 49%. For H-KSKVGWLIQLFHKKKSKVGWLILLFHKK-NH2, the “crude HPLC purity” value was 31%. With H-KSKVKALIQLFHKK-NH2 the “crude HPLC purity” value was 75%. For H-KSKVGWLIYLFHKK-NH2, the “crude HPLC purity” value was 54%. For H-KSKVKWAIQLFHKK-NH2, the “crude HPLC purity” value was 58% and the “final HPLC purity” value was 97%. In the case of 150-161, P @ 152 (G) (KVPWLIQLFHKK), the “final HPLC purity” value was 98%. With “PEPTIDE1{K.S.K.V.G.V.A.I.Q.L.F.H.K.K.[am]}$$$$V2.0” the “crude HPLC purity” value was 62% and the “final HPLC purity” value was 95%. With PEPTIDE1{K.W.L.I.Q.L.K.[am]}$$$$V2.0 the “crude HPLC purity” value was 63%. For “PEPTIDE1{K.S.K.V.G.[dF].L.I.Q.L.F.H.K.K.[am]}$$$$V2.0”, the “crude HPLC purity” value was 51%. In the case of “H-KSKVG[dA]LIQLFHKK-NH2 (SMILES CC[C@H](C)[C@H](NC(=O)[C@H](CC(C)C)NC(=O)[C@@H](C)NC(=O)CNC(=O)[C@@H](NC(=O)[C@H](CCCCN)NC(=O)[C@H](CO)NC(=O)[C@@H](N)CCCCN)C(C)C)C(=O)N[C@@H](CCC(N)=O)C(=O)N[C@@H](CC(C)C)C(=O)N[C@@H](Cc1ccccc1)C(=O)N[C@@H](Cc1c[nH]cn1)C(=O)N[C@@H](CCCCN)C(=O)N[C@@H](CCCCN)C(N)=O)”, the “crude HPLC purity” value was 52%. For C-148-161-C (CKSKVGWLIQLFHKKC), the “crude HPLC purity” value was 28%. For “K - K - Q - L - L - L - L - K - K (KKQLLLLKK)”, the “final HPLC purity” value was 99%. In the case of H-KSKVGALIQLFHKK-NH2, the “crude HPLC purity” value was 64%. For H-KAKVGWLIQLFHKK-NH2, the “crude HPLC purity” value was 70%. In the case of H-KSKVKWLIKLFFKFKSKVKWLIKLFFKF-NH2, the “crude HPLC purity” value was 16%. With H-KSKVFWLIQLFHKK-NH2 the “crude HPLC purity” value was 57%. With “H-KSKVGWLIQL[1Nal]HKK-NH2 (SMILES CC[C@H](C)[C@H](NC(=O)[C@H](CC(C)C)NC(=O)[C@H](Cc1c[nH]c2ccccc12)NC(=O)CNC(=O)[C@@H](NC(=O)[C@H](CCCCN)NC(=O)[C@H](CO)NC(=O)[C@@H](N)CCCCN)C(C)C)C(=O)N[C@@H](CCC(N)=O)C(=O)N[C@@H](CC(C)C)C(=O)N[C@@H](Cc1cccc2ccccc12)C(=O)N[C@@H](Cc1c[nH]cn1)C(=O)N[C@@H](CCCCN)C(=O)N[C@@H](CCCCN)C(N)=O)” the “crude HPLC purity” value was 41%. In the case of H-KSKVGYLIQLFHKK-NH2, the “crude HPLC purity” value was 60%. With H-KSKVGGLIQLFHKK-NH2 the “crude HPLC purity” value was 46%. With “H-KSKVG[Phe(4-NH2)]LIQLFHKK-NH2 (SMILES CC[C@H](C)[C@H](NC(=O)[C@H](CC(C)C)NC(=O)[C@H](Cc1ccc(N)cc1)NC(=O)CNC(=O)[C@@H](NC(=O)[C@H](CCCCN)NC(=O)[C@H](CO)NC(=O)[C@@H](N)CCCCN)C(C)C)C(=O)N[C@@H](CCC(N)=O)C(=O)N[C@@H](CC(C)C)C(=O)N[C@@H](Cc1ccccc1)C(=O)N[C@@H](Cc1c[nH]cn1)C(=O)N[C@@H](CCCCN)C(=O)N[C@@H](CCCCN)C(N)=O)” the “crude HPLC purity” value was 47%. For H-SVHVHISKSKVGWLIQLFHKKIESALRNK-NH2, the “crude HPLC purity” value was 26%. With H-KKWLIQLKKK-NH2 the “crude HPLC purity” value was 67% and the “final HPLC purity” value was 98%.
